# Reference: patent EP1308501A1, “Fermented beverages comprising yeast transformed by the ATF2 gene” (Pernod-Ricard, priority 2001, dated 2003)
# The name of at least one read-out is uncertain.
# Tested on: YRC1001/pRC124
# Assay: Bioconversion of alcohols added to malt medium by a strain overexpressing ATF2
# Type: cell-based, Saccharomyces cerevisiae
# Conditions: alcohol added at 100 µg/ml, malt non glucosé, 98 heures; ratio ester acétylé de l'alcool ajouté / somme des alcools et produits dérivés
# Method: Transformation dans la souche […], sous contrôle du promoteur proTEF1, le gène ATF2 (pRC124). Les précultures sont réalisées dans du milieu liquide SC20 (Sherman, 1991) dépourvu d'uracile et selon la même procédure que dans l'exemple 3. Les cultures sont ensemencées comme décrit précédemment dans du milieu malt, cette fois non glucosé. Ce dernier est supplémenté en leucine, lysine et histidine. A ce milieu malt, on ajoute juste avant ensemencement des alcools à raison de 100 μg/ml. Après fermentation pendant 98 heures, on analyse -comme décrit précédemment- les alcools et leurs produits dérivés (esters […] correspondant à l'alcool et son ester éthylé). La capacité de bioconversion est ensuite exprimée par le rapport « ester acétylé de l'alcool ajouté »/« somme des alcools et produits dérivés ». Cette valeur donne une indication […] au milieu extérieur par la souche de levure transformée. Les résultats sont […] Tableau 4.
row,Structure (SMILES),Bioconversion par YRC1001/pRC124
1,CC(C)=CCC/C(C)=C/CO [géraniol],"0,28"
2,CCCCCCCCCCO [n-décanol],"0,086"
